Data reported in US20230354808A1, “METHOD OF CONTROLLING SOYBEAN RUST FUNGUS RESISTANT TO QOI FUNGICIDE” (priority 2020, published 2023).
The name of at least one read-out is uncertain. Some entries share one result that the patent states for a list of compounds.

tested on: soybean rust fungus (Phakopsora pachyrhizi) having an amino acid substitution of F129L on mitochondrial cytochrome b protein; assay: Test Example 1 / Comparative Test Example 1: soybean leaf disk test, lesion area of soybean rust disease; assay type: in vivo; conditions: 3.1 ppm

| Compound | Lesion Area at each of concentrations (%) |
| --- | --- |
| CNC(=O)/C(=N/OC)c1ccccc1Oc1ccccc1 [drawing 304, reference compound] | 100 |
| CO/N=C(\Oc1cc(C#CC2CC2)ccc1C)C(=O)OC [1-2] | 10 |
| CNC(=O)/C(=N/OC)c1ccccc1COc1cc(C)ccc1C [drawing 303, reference compound] | 100 |
| COC(=O)NCc1cc(/C(C)=N/OCc2cccc(C)n2)ccc1Cl [drawing 298, reference compound] | 100 |
| COC(=O)N(OC)c1ccccc1COc1ccn(-c2ccc(Cl)cc2)n1 [drawing 299, reference compound] | 100 |
| CO/C=C(/C(=O)OC)c1cc(Oc2ccccc2F)ccc1C [4-2] | 0 |
| CO/C=C(/C(=O)OC)c1cc(/C=C/c2ccc(Cl)cc2)ccc1C [2-4] | 10 |

same assay, conditions: 12.5 ppm

| Compound | Lesion Area at each of concentrations (%) |
| --- | --- |
| CNC(=O)/C(=N/OC)c1ccccc1Oc1ccccc1 [drawing 304, reference compound] | 100 |
| CO/N=C(\Oc1cc(C#CC2CC2)ccc1C)C(=O)OC [1-2] | 0 |
| CNC(=O)/C(=N/OC)c1ccccc1COc1cc(C)ccc1C [drawing 303, reference compound] | 100 |
| COC(=O)NCc1cc(/C(C)=N/OCc2cccc(C)n2)ccc1Cl [drawing 298, reference compound] | 100 |
| COC(=O)N(OC)c1ccccc1COc1ccn(-c2ccc(Cl)cc2)n1 [drawing 299, reference compound] | 100 |
| CO/C=C(/C(=O)OC)c1cc(Oc2ccccc2F)ccc1C [4-2] | 0 |
| CO/C=C(/C(=O)OC)c1cc(/C=C/c2ccc(Cl)cc2)ccc1C [2-4] | 0 |

same assay, conditions: test compound applied at 50 ppm; soybean leaf disk

| Compound | lesion area of the leaf disk as % of the lesion area of the untreated leaf disk [%] |
| --- | --- |
| CO/C=C(/C(=O)OC)c1cc(/C=C/Cc2ccccc2)ccc1C [2-10] | ≤ 30 |
| CO/C=C(/C(=O)OC)c1ccc(C)c(Oc2ccccc2)c1 [4-47] | ≤ 30 |
| CON=C(C(=O)OC)c1cc(Oc2ccccc2)ccc1C [4-8] | ≤ 30 |
| CO/C=C(/C(=O)OC)c1cc(Oc2cccc(Cl)c2)ccc1C [4-4] | ≤ 30 |
| CO/C=C(/C(=O)OC)c1cc(Cc2ccccc2)ccc1C [13-1] | ≤ 30 |
| CNC(=O)C(=NOC)c1cc(Oc2ccccc2C)ccc1C [4-40] | ≤ 30 |
| CO/C=C(/C(=O)OC)c1cc(Oc2ccc3ccccc3c2)ccc1C [4-76] | ≤ 30 |
| CO/N=C(\Oc1cc(C#CC2CC2)ccc1C)C(=O)OC [1-2] | ≤ 30 |
| C#Cc1cnc(Oc2ccc(C)c(/C(=C\OC)C(=O)OC)c2)s1 [14-9] | ≤ 30 |
| CO/C=C(/C(=O)OC)c1cc(CCC2CC2)ccc1C [12-1] | ≤ 30 |
| CNC(=O)C(=NOC)c1cc(Oc2cccc(F)c2)ccc1C [4-38] | ≤ 30 |
| CO/C=C(/C(=O)OC)c1cc(Oc2nc(C)ns2)ccc1C [14-1] | ≤ 30 |
| CO/C=C(/C(=O)OC)c1cc(Oc2ccc(OC)cc2)ccc1C [4-29] | ≤ 30 |
| CO/C=C(/C(=O)OC)c1cc(Cc2ccccc2F)ccc1C [13-2] | ≤ 30 |
| CO/C=C(/C(=O)OC)c1cc(Oc2ccncc2Cl)ccc1C [4-67] | ≤ 30 |
| CO/C=C(/C(=O)OC)c1cc(Sc2ccc(Cl)cc2)ccc1C [3A-1] | ≤ 30 |
| CO/C=C(/C(=O)OC)c1cc(C(C)=NOC(C)c2ccccc2)ccc1C (stereo not drawn) [3-1] | ≤ 30 |
| CO/C=C(/C(=O)OC)c1cc(Oc2ccc(F)nc2)ccc1C [4-73] | ≤ 30 |
| Cc1ccc(C#CC2CC2)cc1-n1nnn(C)c1=O [1-5] | ≤ 30 |
| COC(=O)/C(=C/OCF)Oc1cc(C(C)=NOCc2ccccc2)ccc1C [9-6] | ≤ 30 |
| CO/C=C(/C(=O)OC)c1cc(OC2CCCCC2)ccc1C [4A-1] | ≤ 30 |
| COc1nn(C)c(=O)n1-c1cc(-c2ccccc2)ccc1C [2-7] | ≤ 30 |
| CO/C=C(/C(=O)OC)c1cc(OCc2ccccc2C)ccc1C [1A-3] | ≤ 30 |
| CON=C(C1=NOCCO1)c1cc(-c2ccccc2F)ccc1C [2-14] | ≤ 30 |

| Compound | lesion area of the leaf disk as % of the lesion area of the untreated leaf disk [%] |
| --- | --- |
| CON=C(C(=O)OC)c1cc(Oc2ccccc2C)ccc1C [4-39] | ≤ 30 |
| CO/C=C(/C(=O)OC)c1cc(Oc2cc(Cl)ccn2)ccc1C [4-70] | ≤ 30 |
| CO/C=C(/C(=O)OC)c1cc(Oc2ncc(C3CC3)s2)ccc1C [14-12] | ≤ 30 |
| CO/C=C(/C(=O)OC)c1cc(Oc2cccc(F)c2)c(C)cc1C [4-81] | ≤ 30 |
| CO/C=C(/C(=O)OC)c1cc(Oc2cccc(Cl)n2)ccc1C [4-61] | ≤ 30 |
| CO/C=C(/C(=O)OC)c1cc(Oc2ncc(Br)s2)ccc1C [14-7] | ≤ 30 |
| CO/C=C(/C(=O)OC)c1cc(Oc2ncc(Cl)cc2Cl)ccc1C [4-64] | ≤ 30 |
| CO/C=C(/C(=O)OC)c1cc(Oc2cccc(OC(F)(F)F)c2)ccc1C [4-17] | ≤ 30 |
| CO/C=C(/C(=O)OC)c1cc(Oc2nc(C(F)(F)F)cs2)ccc1C [14-14] | ≤ 30 |
| COc1nn(-c2cc(C#CC(C)(C)C)ccc2C)c(=O)o1 [1-8] | ≤ 30 |
| CO/C=C(/C(=O)OC)c1cc(Oc2ncc(Cl)s2)c(C)cc1C [14-44] | ≤ 30 |
| CO/C=C(/C(=O)OC)c1cc(Oc2cccc(F)n2)ccc1C [4-45] | ≤ 30 |
| CO/C=C(/C(=O)OC)c1cc(Oc2nc(Cl)c(Cl)cc2Cl)ccc1C [4-66] | ≤ 30 |
| COc1nn(-c2cc(-c3ccccc3F)ccc2C)c(=O)o1 [2-12] | ≤ 30 |
| CO/C=C(/C(=O)OC)c1cc(Oc2nc3ccccc3s2)ccc1C [14-26] | ≤ 30 |
| CO/C=C(/C(=O)OC)c1cc(Oc2cc(F)ccn2)ccc1C [4-69] | ≤ 30 |
| CO/C=C(/C(=O)OC)c1cc(Oc2ncccc2Cl)ccc1C [4-59] | ≤ 30 |
| CO/C=C(/C(=O)OC)c1cc(C(C)=NN=C(C)c2nc(C)cs2)ccc1C [11-2] | ≤ 30 |
| CON=C(C1=NOCCO1)c1cc(C#CC2CC2)ccc1C [1-9] | ≤ 30 |
| CO/C=C(/C(=O)OC)c1cc(COc2ccn(-c3ccc(Cl)cc3)n2)ccc1C [2A-1] | ≤ 30 |
| CO/C=C(/C(=O)OC)c1cc(C=NOC(C)c2ccccc2)ccc1C (stereo not drawn) [3-2] | ≤ 30 |
| CO/C=C(/C(=O)OC)c1cc(Oc2ccc(C(F)(F)F)cn2)ccc1C [4-63] | ≤ 30 |
| CO/C=C(/C(=O)OC)c1cc(Oc2ccccc2F)ccc1OC [4-80] | ≤ 30 |
| CO/C=C(/C(=O)OC)c1cc(Oc2ccccc2Cl)ccc1C [4-21] | ≤ 30 |

| Compound | lesion area of the leaf disk as % of the lesion area of the untreated leaf disk [%] |
| --- | --- |
| CO/C=C(/C(=O)OC)c1cc(Oc2ccccn2)ccc1C [4-41] | ≤ 30 |
| CO/C=C(/C(=O)OC)c1cc(Oc2ncc(C#C[Si](C)(C)C)s2)ccc1C [14-11] | ≤ 30 |
| CO/C=C(/C(=O)OC)c1cc(Oc2ccccc2C)ccc1C [4-12] | ≤ 30 |
| CO/C=C(/C(=O)OC)c1cc(Cn2cc(Cl)cn2)ccc1C [2A-4] | ≤ 30 |
| CO/C=C(/C(=O)OC)c1cc(Oc2cc(Oc3c(F)cccc3F)ncn2)ccc1C [14-25] | ≤ 30 |
| CO/C=C(/C(=O)OC)c1cc(CON=C(C)c2cccc(C(F)(F)F)c2)ccc1C [10-2] | ≤ 30 |
| CO/C=C(/C(=O)OC)c1cc(Oc2nccs2)ccc1C [14-4] | ≤ 30 |
| CO/C=C(/C(=O)OC)c1cc(Oc2cccc(OC)n2)ccc1C [4-44] | ≤ 30 |
| CON=C(C(=O)OC)c1cc(Oc2cccc(F)c2)ccc1C [4-37] | ≤ 30 |
| CO/C=C(/C(=O)OC)c1ccc(C)c(Oc2ccccc2F)c1 [4-78] | ≤ 30 |
| CO/C=C(/C(=O)OC)c1cc(COc2ccccc2)ccc1C [10-4] | ≤ 30 |
| Cc1ccc(C#CC(C)(C)C)cc1-n1nnn(C)c1=O [1-6] | ≤ 30 |
| CO/N=C(/C1=NOCCO1)c1cc(Oc2ccccc2F)ccc1C [5-2] | ≤ 30 |
| CO/C=C(/C(=O)OC)c1cc(Oc2ncccc2F)ccc1C [4-46] | ≤ 30 |
| CO/C=C(/C(=O)OC)c1cc(Oc2ccccc2F)ccc1C [4-2] | ≤ 30 |
| CO/C=C(/C(=O)OC)c1cc(Cc2cc(F)cc(F)c2)ccc1C [13-4] | ≤ 30 |
| COc1nn(C)c(=O)n1-c1cc(Oc2ccccc2F)ccc1C [5-1] | ≤ 30 |
| CO/C=C(/C(=O)OC)c1cc(/C=C/c2ccc(Cl)cc2)ccc1C [2-4] | ≤ 30 |
| CO/C=C(/C(=O)OC)c1cc(CCCc2ccccc2)ccc1C [12-2] | ≤ 30 |
| CO/C=C(/C(=O)OC)c1cc(Cc2ccccc2C)ccc1C [13-3] | ≤ 30 |
| CO/C=C(/C(=O)OC)c1cc(Oc2ccnc(F)c2)ccc1C [4-68] | ≤ 30 |
| CO/C=C(/C(=O)OC)c1cc(Oc2ccc(Cl)cn2)ccc1C [4-60] | ≤ 30 |
